In publication PMC8500837, “The tertiary structure of the human Xkr8–Basigin complex that scrambles phospholipids at plasma membranes” (Nature Structural & Molecular Biology, 2021):
Positions count from the first letter of the chain named. Results are given in words; binding and its absence hold for the method and conditions named. In cells and extracts the contact can be indirect. Binding can be weak; no strength is given. Sequences can lack the tags named with a protein.

Tests used:
[1] = target: T1, hXkr8-T305C tagged with mGFP (human) (UniProt Q9H6D3); experiment: cross-linking; cysteine-substituted hXkr8-mGFP and hBSG-HA co-expressed in HEK293T; crude membrane fraction not treated with oxidant; nonreducing SDS–PAGE, western blot for GFP and HA
T1 sequence: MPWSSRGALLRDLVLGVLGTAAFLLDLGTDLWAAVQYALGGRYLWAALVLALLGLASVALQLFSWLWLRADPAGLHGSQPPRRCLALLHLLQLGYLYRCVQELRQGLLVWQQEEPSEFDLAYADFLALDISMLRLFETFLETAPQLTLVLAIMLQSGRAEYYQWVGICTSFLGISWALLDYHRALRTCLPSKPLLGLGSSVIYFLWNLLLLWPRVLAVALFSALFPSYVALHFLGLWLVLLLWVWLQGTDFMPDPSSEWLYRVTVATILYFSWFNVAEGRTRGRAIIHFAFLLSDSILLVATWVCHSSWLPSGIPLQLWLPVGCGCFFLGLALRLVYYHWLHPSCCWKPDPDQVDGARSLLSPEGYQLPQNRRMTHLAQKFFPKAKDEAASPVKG

[2] = target: T2, hXkr8-T302C tagged with mGFP (human) (UniProt Q9H6D3); experiment: cross-linking; cysteine-substituted hXkr8-mGFP and hBSG-HA co-expressed in HEK293T; crude membrane fraction treated with copper phenanthroline (0.3 mM CuSO4, 0.9 mM 1,10-phenanthroline) at room temperature for 10 min; nonreducing SDS–PAGE, western blot for GFP and HA
T2 sequence: T1 sequence with T302C, C305T

Substance | binding [1] | binding [2]
hBSG-A207C tagged with HA (human) | binds | –
hBSG-P211C tagged with HA (human) | – | binds
